Results are given in words; binding and its absence hold for the method and conditions named. Binding calls can cover weak binding; strength is not graded here.
Biological target: CipA-ΔXD, C. thermocellum CipA without its terminal X-dockerin modular dyad (C. thermocellum)
Assay: SEC-SAXS; CipA-ΔXD and Cel8A S458A-S459A co-expressed in E. coli from one plasmid; complex purified on a Sephacryl 200 column 1 h before injection on the beamline HPLC; scattering collected on the eluted peak

B1: C. thermocellum Cel8A S458A-S459A (dockerin mutant) co-expressed with CipA-ΔXD (enzyme, UniProt A3DC29 33-477)
chain: AGVPFNTKYPYGPTSIADNQSEVTAMLKAEWEDWKSKRITSNGAGGYKRVQRDASTNYDTVSEGMGYGLLLAVCFNEQALFDDLYRYVKSHFNGNGLMHWHIDANNNVTSHDGGDGAATDADEDIALALIFADKLWGSSGAINYGQEARTLINNLYNHCVEHGSYVLKPGDRWGGSSVTNPSYFAPAWYKVYAQYTGDTRWNQVADKCYQIVEEVKKYNNGTGLVPDWCTASGTPASGQSYDYKYDATRYGWRTAVDYSWFGDQRAKANCDMLTKFFARDGAKGIVDGYTIQGSKISNNHNASFIGPVAAASMTGYDLNFAKELYRETVAVKDSEYYGYYGNSLRLLTLLYITGNFPNPLSDLSGQPTPPSNPTPSLPPQVVYGDVNGDGNVNSTDLTMLKRYLLKSVTNINREAADVNRDGAINAADMTILKRYLIKSIPHLPY
In the case of B1, the binding is reported as “binds”.
